In US20250275938A1, “COMPOSITIONS AND METHODS FOR TREATMENT OF CANCER” (SCIROSBIO (FZC), priority 2022, published 2025):
At least one structure is not confirmed: it was looked up by name or label, or the drawing left a doubt.

Tests used:
C6 glioma cells [1] = test: Quantitative RT-PCR gene expression, C6; format: cell-based, rat
Method: (§1) Quantitative RT-PCR analysis of antioxidant enzymes (SOD and CAT), oxidative stress marker (Nrf-2), and apoptosis markers (BCL2 and Caspase-9). Total RNA from all experimental groups was isolated using RNA Express reagent (HiMedia, India) and the respective cDNAs were synthesized using a Hi-c-DNA Synthesis Kit (HiMedia, India). Quantitative RT-PCR was carried out using a CFX 96 thermocycler (Bio-Rad, Hercules, CA) and TB Green Premix Ex Taq 1 (Takara Bio, Otsu, Japan) to detect mRNA. Independent experiments were conducted in triplicate. The cycle threshold (Ct), representing a positive PCR result, is defined as the cycle number at which a sample's fluorescence intensity crossed the threshold automatically determined by the CFX 96.
(§2) The relative changes in gene expression were calculated with the 2^−ΔΔCt method, wherein ΔΔCt=(Cttarget gene−Ctβ-actin) sample−([…]) calibrator.
(§3) The qPCR analyses were performed to measure the expression levels of genes associated with anti-Warburg effect. The total RNA was extracted from the cell lysates and brain tissues of all the experimental groups using TRIZOL reagent (Takara Bio, Shiga, Japan). Quantitative RT-PCR was carried out using a CFX96 Real Time PCR Detection System (Bio-Rad, California, USA) and TB Green Premix Ex Taq I (Takara Bio, Shiga, Japan) to detect messenger ribonucleic acid (mRNA). […]

U87MG glioma cells [2] = test: ELISA protein levels, U87MG; format: cell-based, human
C6 glioma cells [3] = test: AO/EtBr dual staining for apoptosis, C6; format: cell-based, rat; conditions: respective IC50 concentrations
Description: (§4) AO/EtBr are fluorescent nuclear stains, which distinguish between live and dead cells based on their membrane integrity. AO intercalates in the DNA of live cells imparting green shade to the nucleus as an indica-tor of viability. In the case of the dead cell, EtBr intercalates along with AO, resulting in an orange appearance, with an increased orange appearance corresponding to a concomitant increase in the number of dead cells and vice versa.
(§5) After the treatment period, monolayer cells were stained with AO/EtBr stain (1 mg/ml) and were visualized immediately under a fluorescence microscope (Axiovert, Carl Zeiss) at 20× magnification.

U87MG human glioma cells = test: AO/EtBr dual staining for apoptosis, U87MG; format: cell-based; conditions: respective IC50 concentrations
Description: as §4, §5

rat brain tissue = test: Western blotting and ELISA of brain tissue proteins; format: in vivo; conditions: i.p. 7 days
U87MG glioma cells [4] = test: Quantitative RT-PCR gene expression, U87MG; format: cell-based, human
Method: as §1, §2, §3

C6 glioma cells [5] = test: ELISA protein levels, C6; format: cell-based, rat
[6] = tested on: U87MG human glioma cell line; test: MTT cell viability assay, U87MG; format: cell-based; conditions: 24 hours
Method: (§6) Cell lines and culture conditions. A human glioma cell line, U87MG, a rat glioma cell line, C6, and normal HEK293T (Human Embryonic Kidney) cells were obtained from National Centre for Cell Science (NCCS), Pune, India. The cells were sub-cultured in Dulbecco's Modified Eagle's Medium (DMEM) supplemented with 10% FBS at 5% CO2 and 37° C. At 85% confluence, the cells were harvested using 0.25% trypsin and seeded in 25 cm^2 flasks, 96 well, and 6-well plates, according to the experiment being performed. The cells were allowed to attach 70% to the surface prior to treatment. A stock solution of all the drugs (10 mg/ml) was made in a vehicle and diluted to the required concentrations. Suspensions were aspirated 10 times before treatment. […]
(§7) After a 24 hour treatment period, the cells were allowed to react with MTT for 4 hours in dark at 37° C. At the end of the incubation period, the dark purple formazan crystals formed were solubilized with DMSO and the absorbance was measured spectrophotometrically at 595 nm (Molecular Devices Spectra-Max M5, USA). […] To determine the cell viability, the percentage of viability was calculated as follows: […]
(§8) Calculation of IC50 value. The IC50 of a drug was determined using y=m(x)+c equation (where: ‘y’ & ‘x’ are the respective coordinates of y & x-axis, ‘m’ is the slope and ‘c’ is the constant) derived from the trendlines of each scattered plots MMT assay. […]

C6 rat glioma cell line = test: MTT cell viability assay, C6; format: cell-based; conditions: 24 hours
Method: as §6, §7, §8

## Cn1nnc2c(C(N)=O)ncn2c1=O [TMZ, 3-methyl-3-oxoimidazo[5,1-d] [1,2,3,5] tetrazine-8-carboxamide]
C6 glioma cells [1]
  mRNA expression levels of BCL2: not found to be statistically significant
  mRNA expression levels of Caspase-9: not found to be statistically significant
U87MG glioma cells [2]
  protein levels of Nrf-2 (ELISA): significantly reduced
C6 glioma cells [3]
  apoptotic cell death (AO/EtBr): higher rate of apoptosis
C6 glioma cells [3]; listed as T
  apoptotic cell death (AO/EtBr): early apoptotic cells
U87MG human glioma cells
  apoptotic cell death (AO/EtBr): higher rate of apoptosis
U87MG human glioma cells; listed as T
  apoptotic cell death (AO/EtBr): early apoptotic cells
Rat brain tissue
  levels of BAD (western blot): significant role in the elevating the levels of BAD
U87MG glioma cells [4]
  mRNA expression levels of BCL2: not found to be statistically significant
  mRNA expression levels of Caspase-9: not found to be statistically significant
C6 glioma cells [5]
  protein levels of Nrf-2 (ELISA): significantly reduced
[6]
  cell viability / anti-proliferative effect (MTT), in words: reduction in cell viability in a dose-dependent fashion
C6 rat glioma cell line
  cell viability / anti-proliferative effect (MTT), in words: reduction in cell viability in a dose-dependent fashion
